Measured values published in paper PMC7093153 (eLife, 2020).

T1: Rad51 (S. pombe), purified (S. pombe) (UniProt P36601)
T1 sequence: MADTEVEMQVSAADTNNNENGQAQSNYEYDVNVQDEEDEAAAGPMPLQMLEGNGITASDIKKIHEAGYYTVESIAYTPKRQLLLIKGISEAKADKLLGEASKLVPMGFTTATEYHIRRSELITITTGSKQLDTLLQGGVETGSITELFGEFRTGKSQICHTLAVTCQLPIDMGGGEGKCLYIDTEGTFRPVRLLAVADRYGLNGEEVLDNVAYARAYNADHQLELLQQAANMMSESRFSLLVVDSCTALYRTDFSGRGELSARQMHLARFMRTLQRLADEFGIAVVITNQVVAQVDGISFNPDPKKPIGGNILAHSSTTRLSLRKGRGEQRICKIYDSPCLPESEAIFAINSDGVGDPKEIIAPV


Columns and labels:
[1] = target: T1, Rad51 (S. pombe), purified (S. pombe); assay: co-IP
[2] = target: T1, Rad51 (S. pombe), purified (S. pombe); assay: pull-down
[3] = target: Rad57 (untagged) (S. pombe); assay: co-IP

Row | binding [1] | binding [2] | binding [3] | Molecule
1 | binds | binds |  | Swi5-Sfr1-3A complex (Site 1 mutant) (S. pombe)
2 | binds | binds |  | Swi5-Sfr1-4A complex (Site 2 mutant) (S. pombe)
3 |  |  | no binding | Rad51 (S. pombe), purified (natural protein, UniProt P36601 1-365, looked up) MADTEVEMQVSAADTNNNENGQAQSNYEYDVNVQDEEDEAAAGPMPLQMLEGNGITASDIKKIHEAGYYTVESIAYTPKRQLLLIKGISEAKADKLLGEASKLVPMGFTTATEYHIRRSELITITTGSKQLDTLLQGGVETGSITELFGEFRTGKSQICHTLAVTCQLPIDMGGGEGKCLYIDTEGTFRPVRLLAVADRYGLNGEEVLDNVAYARAYNADHQLELLQQAANMMSESRFSLLVVDSCTALYRTDFSGRGELSARQMHLARFMRTLQRLADEFGIAVVITNQVVAQVDGISFNPDPKKPIGGNILAHSSTTRLSLRKGRGEQRICKIYDSPCLPESEAIFAINSDGVGDPKEIIAPV

Results are given in words; binding and its absence hold for the method and conditions named. For some assays here: Binding calls can cover weak binding; strength is not graded here. For some assays here: Binding seen in cells or lysates may run through a third protein.
